Some of the results follow.

Protein sequences, listed by entry. Tags and fused reporters are not part of them. Lines headed by an entry give the natural chain unless they say otherwise; changes in a name come on top.
UniProt Q70SY1: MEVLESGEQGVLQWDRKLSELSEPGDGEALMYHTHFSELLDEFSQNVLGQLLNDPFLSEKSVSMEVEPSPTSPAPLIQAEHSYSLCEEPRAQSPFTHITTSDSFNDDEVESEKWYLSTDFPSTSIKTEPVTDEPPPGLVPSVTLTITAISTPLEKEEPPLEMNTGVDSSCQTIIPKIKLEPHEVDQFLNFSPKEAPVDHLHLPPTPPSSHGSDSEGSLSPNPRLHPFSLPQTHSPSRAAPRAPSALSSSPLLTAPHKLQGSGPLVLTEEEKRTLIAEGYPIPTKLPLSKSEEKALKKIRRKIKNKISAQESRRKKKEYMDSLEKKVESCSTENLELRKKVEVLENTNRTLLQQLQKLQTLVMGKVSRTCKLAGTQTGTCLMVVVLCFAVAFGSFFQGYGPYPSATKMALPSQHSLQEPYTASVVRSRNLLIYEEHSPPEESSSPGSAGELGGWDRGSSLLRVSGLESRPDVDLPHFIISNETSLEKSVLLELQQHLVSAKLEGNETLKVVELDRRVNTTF
UniProt Q9NXE8: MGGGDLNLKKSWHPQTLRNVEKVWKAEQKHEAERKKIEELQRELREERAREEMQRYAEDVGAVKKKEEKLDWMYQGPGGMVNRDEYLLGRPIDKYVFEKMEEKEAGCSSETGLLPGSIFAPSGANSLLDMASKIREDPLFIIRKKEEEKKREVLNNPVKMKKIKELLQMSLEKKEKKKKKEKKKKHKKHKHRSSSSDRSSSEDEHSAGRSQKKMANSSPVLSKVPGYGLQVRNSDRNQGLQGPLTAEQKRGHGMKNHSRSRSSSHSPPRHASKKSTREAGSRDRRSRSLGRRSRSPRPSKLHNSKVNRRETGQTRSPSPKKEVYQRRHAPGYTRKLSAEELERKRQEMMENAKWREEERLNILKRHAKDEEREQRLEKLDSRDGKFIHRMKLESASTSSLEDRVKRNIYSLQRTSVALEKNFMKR
UniProt Q14894: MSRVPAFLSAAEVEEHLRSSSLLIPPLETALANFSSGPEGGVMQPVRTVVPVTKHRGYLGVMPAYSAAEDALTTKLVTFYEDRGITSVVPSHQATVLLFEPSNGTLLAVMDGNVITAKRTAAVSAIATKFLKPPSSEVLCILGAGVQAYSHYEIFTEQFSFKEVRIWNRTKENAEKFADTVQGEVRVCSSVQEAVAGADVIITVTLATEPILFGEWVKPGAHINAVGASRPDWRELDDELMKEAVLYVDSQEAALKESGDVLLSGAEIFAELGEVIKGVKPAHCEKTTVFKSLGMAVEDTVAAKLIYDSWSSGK
UniProt P48730: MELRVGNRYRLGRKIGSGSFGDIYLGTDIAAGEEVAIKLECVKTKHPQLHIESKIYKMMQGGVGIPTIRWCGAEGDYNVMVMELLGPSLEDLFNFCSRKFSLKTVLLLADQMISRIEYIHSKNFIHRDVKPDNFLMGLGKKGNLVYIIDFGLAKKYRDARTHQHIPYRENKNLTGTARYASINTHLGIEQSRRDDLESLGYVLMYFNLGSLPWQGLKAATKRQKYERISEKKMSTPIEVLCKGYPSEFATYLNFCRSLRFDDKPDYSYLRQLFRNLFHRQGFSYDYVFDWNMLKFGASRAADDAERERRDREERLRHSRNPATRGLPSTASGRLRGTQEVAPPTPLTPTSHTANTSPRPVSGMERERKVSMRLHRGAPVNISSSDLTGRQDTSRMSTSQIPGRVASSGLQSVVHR
UniProt Q14999: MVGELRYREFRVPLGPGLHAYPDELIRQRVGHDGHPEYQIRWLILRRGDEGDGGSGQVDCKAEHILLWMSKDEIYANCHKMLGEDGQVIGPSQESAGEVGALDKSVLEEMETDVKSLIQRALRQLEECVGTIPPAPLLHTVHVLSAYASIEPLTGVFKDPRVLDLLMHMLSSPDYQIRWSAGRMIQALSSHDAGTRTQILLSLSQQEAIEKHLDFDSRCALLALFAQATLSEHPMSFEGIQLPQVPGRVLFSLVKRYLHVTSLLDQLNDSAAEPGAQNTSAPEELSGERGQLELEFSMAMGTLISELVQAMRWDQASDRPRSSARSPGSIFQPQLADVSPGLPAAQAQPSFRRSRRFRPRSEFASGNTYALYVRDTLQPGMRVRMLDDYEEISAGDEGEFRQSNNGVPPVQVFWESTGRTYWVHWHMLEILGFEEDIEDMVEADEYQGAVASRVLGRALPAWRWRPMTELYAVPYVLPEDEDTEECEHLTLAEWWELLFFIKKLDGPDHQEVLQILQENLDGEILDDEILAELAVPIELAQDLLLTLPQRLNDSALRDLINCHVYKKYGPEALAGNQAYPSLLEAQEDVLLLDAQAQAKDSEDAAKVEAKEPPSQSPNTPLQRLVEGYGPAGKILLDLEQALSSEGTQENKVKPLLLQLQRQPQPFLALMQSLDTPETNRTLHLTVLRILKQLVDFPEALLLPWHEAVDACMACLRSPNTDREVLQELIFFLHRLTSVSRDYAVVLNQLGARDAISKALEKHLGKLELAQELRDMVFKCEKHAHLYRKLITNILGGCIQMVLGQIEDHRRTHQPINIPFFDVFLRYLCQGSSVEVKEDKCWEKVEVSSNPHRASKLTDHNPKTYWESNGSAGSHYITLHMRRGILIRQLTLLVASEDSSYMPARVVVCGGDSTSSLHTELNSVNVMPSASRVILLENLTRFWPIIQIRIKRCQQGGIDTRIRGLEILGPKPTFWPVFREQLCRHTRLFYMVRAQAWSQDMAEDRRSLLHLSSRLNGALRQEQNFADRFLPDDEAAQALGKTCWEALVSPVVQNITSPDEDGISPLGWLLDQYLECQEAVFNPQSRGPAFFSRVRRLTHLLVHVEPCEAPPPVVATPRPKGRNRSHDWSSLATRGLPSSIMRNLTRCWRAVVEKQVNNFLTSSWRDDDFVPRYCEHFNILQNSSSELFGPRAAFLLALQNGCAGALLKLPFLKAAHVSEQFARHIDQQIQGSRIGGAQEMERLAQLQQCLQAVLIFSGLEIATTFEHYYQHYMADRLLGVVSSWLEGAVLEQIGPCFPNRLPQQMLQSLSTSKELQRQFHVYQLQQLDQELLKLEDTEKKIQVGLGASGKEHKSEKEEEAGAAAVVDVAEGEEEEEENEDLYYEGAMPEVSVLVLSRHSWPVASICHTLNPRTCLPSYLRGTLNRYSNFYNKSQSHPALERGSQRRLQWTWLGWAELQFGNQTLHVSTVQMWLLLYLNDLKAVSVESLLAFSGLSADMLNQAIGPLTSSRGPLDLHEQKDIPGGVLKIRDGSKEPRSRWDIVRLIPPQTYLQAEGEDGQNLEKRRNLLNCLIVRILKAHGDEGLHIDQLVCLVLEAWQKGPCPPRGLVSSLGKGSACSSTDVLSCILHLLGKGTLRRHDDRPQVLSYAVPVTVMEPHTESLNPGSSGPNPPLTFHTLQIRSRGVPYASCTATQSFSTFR
UniProt Q2NKJ3: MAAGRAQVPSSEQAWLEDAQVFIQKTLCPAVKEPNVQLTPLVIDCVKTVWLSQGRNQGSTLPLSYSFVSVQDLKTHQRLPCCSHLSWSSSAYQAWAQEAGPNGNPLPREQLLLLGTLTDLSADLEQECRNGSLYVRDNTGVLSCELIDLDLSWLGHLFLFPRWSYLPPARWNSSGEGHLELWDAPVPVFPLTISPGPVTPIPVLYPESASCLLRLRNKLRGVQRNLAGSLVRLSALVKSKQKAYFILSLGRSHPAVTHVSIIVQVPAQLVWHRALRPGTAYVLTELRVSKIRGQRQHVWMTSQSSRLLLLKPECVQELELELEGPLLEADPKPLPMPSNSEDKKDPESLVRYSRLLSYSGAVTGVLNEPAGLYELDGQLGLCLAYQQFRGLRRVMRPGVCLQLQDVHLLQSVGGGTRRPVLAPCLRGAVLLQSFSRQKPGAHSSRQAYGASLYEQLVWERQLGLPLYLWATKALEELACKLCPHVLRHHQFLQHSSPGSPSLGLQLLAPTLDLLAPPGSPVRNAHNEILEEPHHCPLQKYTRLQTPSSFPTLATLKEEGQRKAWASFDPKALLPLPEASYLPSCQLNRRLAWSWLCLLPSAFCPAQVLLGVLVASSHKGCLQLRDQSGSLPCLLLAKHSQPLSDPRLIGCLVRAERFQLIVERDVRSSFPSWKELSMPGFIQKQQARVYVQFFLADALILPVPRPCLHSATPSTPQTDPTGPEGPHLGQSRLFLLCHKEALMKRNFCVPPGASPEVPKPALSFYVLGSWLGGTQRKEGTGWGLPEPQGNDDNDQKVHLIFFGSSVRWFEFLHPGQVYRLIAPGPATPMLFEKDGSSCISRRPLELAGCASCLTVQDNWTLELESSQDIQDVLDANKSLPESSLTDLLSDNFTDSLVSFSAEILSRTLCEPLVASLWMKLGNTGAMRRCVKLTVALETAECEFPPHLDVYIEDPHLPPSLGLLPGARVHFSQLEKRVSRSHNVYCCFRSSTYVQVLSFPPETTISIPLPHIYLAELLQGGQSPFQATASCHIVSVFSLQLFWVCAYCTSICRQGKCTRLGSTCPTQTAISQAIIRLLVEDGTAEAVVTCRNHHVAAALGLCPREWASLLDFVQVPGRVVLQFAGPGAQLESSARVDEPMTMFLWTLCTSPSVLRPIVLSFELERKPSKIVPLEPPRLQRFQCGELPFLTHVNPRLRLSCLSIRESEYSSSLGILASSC
UniProt P02511: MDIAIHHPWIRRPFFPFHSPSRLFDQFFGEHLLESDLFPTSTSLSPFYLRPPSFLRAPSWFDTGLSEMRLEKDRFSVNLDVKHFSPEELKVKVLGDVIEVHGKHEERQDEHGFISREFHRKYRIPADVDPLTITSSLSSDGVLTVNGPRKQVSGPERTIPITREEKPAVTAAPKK
UniProt Q14247: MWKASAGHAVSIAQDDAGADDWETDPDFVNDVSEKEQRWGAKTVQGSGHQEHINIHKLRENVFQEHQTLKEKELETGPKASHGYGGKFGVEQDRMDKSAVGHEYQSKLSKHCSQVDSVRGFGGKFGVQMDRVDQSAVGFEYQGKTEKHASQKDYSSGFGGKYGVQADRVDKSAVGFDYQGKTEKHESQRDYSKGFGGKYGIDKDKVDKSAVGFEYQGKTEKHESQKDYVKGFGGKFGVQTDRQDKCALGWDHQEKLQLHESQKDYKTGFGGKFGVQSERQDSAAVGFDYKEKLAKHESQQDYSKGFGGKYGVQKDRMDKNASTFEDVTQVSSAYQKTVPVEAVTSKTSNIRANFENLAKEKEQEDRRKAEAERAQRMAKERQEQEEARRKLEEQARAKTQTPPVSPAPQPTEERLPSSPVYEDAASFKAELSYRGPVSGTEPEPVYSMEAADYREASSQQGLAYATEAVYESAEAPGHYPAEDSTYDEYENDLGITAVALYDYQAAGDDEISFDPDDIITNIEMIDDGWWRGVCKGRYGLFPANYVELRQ
UniProt Q13620, whole entry, looked up: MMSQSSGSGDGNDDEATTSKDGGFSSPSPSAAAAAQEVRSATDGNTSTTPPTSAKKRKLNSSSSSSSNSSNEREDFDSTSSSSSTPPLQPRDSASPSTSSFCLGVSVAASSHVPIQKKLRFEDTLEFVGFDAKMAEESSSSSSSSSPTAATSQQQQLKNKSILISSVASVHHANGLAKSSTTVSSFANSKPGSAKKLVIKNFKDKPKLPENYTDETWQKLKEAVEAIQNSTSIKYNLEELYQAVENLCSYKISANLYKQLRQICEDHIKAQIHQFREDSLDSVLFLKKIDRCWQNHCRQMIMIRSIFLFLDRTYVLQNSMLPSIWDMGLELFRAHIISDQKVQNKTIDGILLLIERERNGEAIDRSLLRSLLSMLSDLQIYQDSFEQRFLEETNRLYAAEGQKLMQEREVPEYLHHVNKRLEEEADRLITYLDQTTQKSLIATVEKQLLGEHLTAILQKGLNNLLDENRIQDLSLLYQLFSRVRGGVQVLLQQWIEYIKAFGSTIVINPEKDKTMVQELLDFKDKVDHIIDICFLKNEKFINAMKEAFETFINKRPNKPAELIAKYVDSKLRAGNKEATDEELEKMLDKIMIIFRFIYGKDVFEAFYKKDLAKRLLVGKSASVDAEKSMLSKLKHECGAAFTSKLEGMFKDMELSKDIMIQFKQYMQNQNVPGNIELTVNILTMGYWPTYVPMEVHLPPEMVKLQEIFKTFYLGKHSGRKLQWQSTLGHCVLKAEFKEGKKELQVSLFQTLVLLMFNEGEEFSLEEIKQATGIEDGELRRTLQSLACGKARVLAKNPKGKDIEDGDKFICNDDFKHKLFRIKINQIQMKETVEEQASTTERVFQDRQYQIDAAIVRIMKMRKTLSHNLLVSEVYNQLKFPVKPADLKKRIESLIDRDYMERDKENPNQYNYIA
UniProt P07711: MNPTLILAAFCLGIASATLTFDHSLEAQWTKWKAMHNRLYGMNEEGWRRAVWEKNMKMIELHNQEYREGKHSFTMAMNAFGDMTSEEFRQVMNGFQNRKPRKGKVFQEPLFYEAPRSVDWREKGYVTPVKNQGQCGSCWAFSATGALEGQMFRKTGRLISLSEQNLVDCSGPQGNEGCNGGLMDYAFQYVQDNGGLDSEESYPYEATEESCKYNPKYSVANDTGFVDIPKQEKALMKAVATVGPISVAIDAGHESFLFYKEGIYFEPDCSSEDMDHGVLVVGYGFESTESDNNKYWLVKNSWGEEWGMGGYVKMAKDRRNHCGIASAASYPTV

Compound in one experiment: CC1=C2C(=CC=C1)N=C(N(C2=O)C3=CC=CC=C3C)CN4C=NC5=C(N=CN=C54)N
Description: log2 fold change, soluble protein after heating vs DMSO (PISA); higher = thermal stabilisation; K562 lysate, 10 uM; active = over 0.2 and 3.5 SD of the protein, either way, in both replicates (recomputed). The essentials:
(§1)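 Soluble protein was defined as the supernatant remaining after 21,000xg for 90 min, following pooling of heated aliquots and adjustment to 0.5% NP-40 at 4°C. Before that, crude K562 extract at 1 mg/mL protein in PBS pH 7.4 with 1 mM MgCl2 was treated with 10 μM compound for 30 min and heated for 3 min across 48°C-58°C. Quantification used TMTpro 16plex LC-MS/MS with channel sums equalised, and values are log-two fold changes in thermal stability relative to solvent controls from duplicates.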
Regarding CYCS (UniProt P99999), the log2 fold change was inactive: 0.002.
Turning to CTPS2 (UniProt Q9NRF8), the log2 fold change is inactive: -0.008.
On the same count and under the same terms, for CRNKL1 (UniProt Q9BZJ0) the value was inactive: -0.012; for CRELD1 isoform 2 (UniProt Q96HD1), inactive: 0.01.
Regarding CTDP1 (UniProt Q9Y5B0), the log2 fold change was inactive: -0.017.
As for CRK (UniProt P46108), the log2 fold change was inactive: 0.018.
On to CREB3L2 (UniProt Q70SY1), for which the log2 fold change was inactive: 0.14.
Take CTU2 (UniProt Q2VPK5): the log2 fold change was inactive: -0.011.
Turning to CREB1 (UniProt P16220), the log2 fold change was inactive: 0.011.
Same read-out and setting: for CT55 (UniProt Q8WUE5) the value was inactive: 0.052; for CWC25 (UniProt Q9NXE8), inactive: 0.111.
On to CUL1 (UniProt Q13616), for which the log2 fold change is inactive: -0.007.
CRYM (UniProt Q14894): the log2 fold change is inactive: 0.05.
Same read-out and setting: for CSNK1D (UniProt P48730) the value was inactive: -0.127; for CYB561 (UniProt P49447), inactive: -0.062; for CTU1 (UniProt Q7Z7A3), inactive: 0.024.
Still for that read-out and setting: for CRTC1 (UniProt Q6UUV9) the value was inactive: 0.029.
As to CUL7 isoform 2 (UniProt Q14999), the log2 fold change was inactive: 0.014.
In the case of CTC1 (UniProt Q2NKJ3), the log2 fold change was inactive: 0.038.
Still for that read-out and setting: for CRYAB (UniProt P02511) the value was inactive: -0.007; for CRKL (UniProt P46109), inactive: -0.001.
As to CXorf56 (UniProt Q9H5V9), the log2 fold change was inactive: -0.012.
For CUL3 (UniProt Q13618), the log2 fold change is inactive: 0.003.
Regarding CSE1L (UniProt P55060), the log2 fold change was inactive: 0.022.
As for CRLF3 (UniProt Q8IUI8), the log2 fold change was inactive: 0.005.
Take CUTA isoform 2 (UniProt O60888): the log2 fold change was inactive: -0.016.
With CWF19L2 (UniProt Q2TBE0), the log2 fold change was inactive: 0.02.
In the case of CSRP1 (UniProt P21291), the log2 fold change was inactive: 0.008.
As for CSTF2 (UniProt P33240), the log2 fold change is inactive: 0.055.
In the case of CTTN (UniProt Q14247), the log2 fold change is inactive: -0.013.
On to CRTC2 (UniProt Q53ET0), for which the log2 fold change was inactive: -0.091.
In the case of CSPP1 (UniProt Q1MSJ5), the log2 fold change is inactive: 0.051.
As for CUL4B (UniProt Q13620), the log2 fold change was inactive: 0.001.
CSNK2A1 (UniProt P68400): the log2 fold change is inactive: -0.119.
Consider CSTF3 (UniProt Q12996), for which the log2 fold change was inactive: 0.
Consider CTTN isoform 2 (UniProt Q14247), for which the log2 fold change is inactive: -0.016.
Take CTSL (UniProt P07711): the log2 fold change was inactive: -0.024.
CTBP1 (UniProt Q13363): the log2 fold change was inactive: 0.023.
Still for that read-out and setting: to CUTC (UniProt Q9NTM9) belongs inactive: 0.012.

Compound in a further experiment: Cc1sc2c(c1C)C(c1ccc(Cl)cc1)=N[C@@H](CC(=O)OC(C)(C)C)c1nnc(C)n1-2
The description is as above. Put shortly:
as §1
In the case of CYCS (UniProt P99999), the log2 fold change is inactive: 0.002.
Turning to CTPS2 (UniProt Q9NRF8), the log2 fold change was inactive: 0.004.
As for CRNKL1 (UniProt Q9BZJ0), the log2 fold change was inactive: -0.326.
As for CRELD1 isoform 2 (UniProt Q96HD1), the log2 fold change is inactive: 0.017.
As for CTDP1 (UniProt Q9Y5B0), the log2 fold change is inactive: -0.035.
Take CRK (UniProt P46108): the log2 fold change is inactive: -0.028.
Consider CREB3L2 (UniProt Q70SY1), for which the log2 fold change was inactive: 0.062.
On the same count and under the same terms, to CTU2 (UniProt Q2VPK5) belongs inactive: 0.042; to CREB1 (UniProt P16220), inactive: 0.02.
As for CT55 (UniProt Q8WUE5), the log2 fold change was inactive: -0.066.
With CUL1 (UniProt Q13616), the log2 fold change was inactive: 0.016.
Consider CSNK1D (UniProt P48730), for which the log2 fold change was inactive: -0.026.
For the target CYB561 (UniProt P49447), the log2 fold change is inactive: 0.
Turning to CTU1 (UniProt Q7Z7A3), the log2 fold change was inactive: 0.016.
CRTC1 (UniProt Q6UUV9): the log2 fold change is inactive: 0.015.
Same read-out and setting: to CUL7 isoform 2 (UniProt Q14999) belongs inactive: 0.029; to CTC1 (UniProt Q2NKJ3), inactive: 0.044; to CRYAB (UniProt P02511), inactive: -0.026.
Turning to CRKL (UniProt P46109), the log2 fold change was inactive: -0.031.
Turning to CXorf56 (UniProt Q9H5V9), the log2 fold change is inactive: -0.022.
Regarding CUL3 (UniProt Q13618), the log2 fold change was inactive: -0.01.
Regarding CSE1L (UniProt P55060), the log2 fold change is inactive: -0.001.
Still for that read-out and setting: for CRLF3 (UniProt Q8IUI8) the value was inactive: -0.006; for CUTA isoform 2 (UniProt O60888), inactive: -0.017.
As for CWF19L2 (UniProt Q2TBE0), the log2 fold change was inactive: -0.083.
Same read-out and setting: for CSRP1 (UniProt P21291) the value was inactive: -0.003; for CSTF2 (UniProt P33240), inactive: -0.032.
Regarding CTTN (UniProt Q14247), the log2 fold change was inactive: 0.001.
Still for that read-out and setting: for CRTC2 (UniProt Q53ET0) the value was inactive: 0.014.
With CSPP1 (UniProt Q1MSJ5), the log2 fold change is inactive: -0.008.
CUL4B (UniProt Q13620): the log2 fold change was inactive: -0.044.
In the case of CSNK2A1 (UniProt P68400), the log2 fold change was inactive: 0.034.
On to CSTF3 (UniProt Q12996), for which the log2 fold change was inactive: 0.03.
Regarding CTTN isoform 2 (UniProt Q14247), the log2 fold change was inactive: -0.018.
On to CTSL (UniProt P07711), for which the log2 fold change was inactive: -0.007.
Regarding CTBP1 (UniProt Q13363), the log2 fold change is inactive: 0.015.
On to CUTC (UniProt Q9NTM9), for which the log2 fold change was inactive: -0.006.

These data come from the supplement of paper PMC10849652.
